Here are results for two molecules from patent publication US20110186299A1, “Low-Toxicity Biodegradable Corrosion Inhibitors” (priority 2008, published 2011).

Series [1] is described as follows: Rate of hydrogen sulphide corrosion by polarization resistance measurement. As to conditions: H2S-saturated two-phase medium (20% white spirit, 80% 1 g/l NaCl), 80° C., 25 ppm (volume/volume) of test compound at 50% by weight in monoethylene glycol.
A short description of series [2]: Rate of carbon dioxide corrosion by polarization resistance measurement. As to conditions: CO2-saturated two-phase medium (20% white spirit, 80% 1 g/l NaCl), 80° C., 25 ppm (volume/volume) of test compound at 50% by weight in monoethylene glycol.

Regarding “N-aminoethyl-2-heptadecenylimidazoline maleate [Example 2]”, the “Rcor (rate of corrosion)” value in series [1] was 0.02 mm/year; in series [2], 0.05 mm/year.

Take `CCCCCCCCC=CCCCCCCCC1=NCCN1CCN` [Imidazoline A, N-aminoethyl-2-heptadecenylimidazoline]: the “Rcor (rate of corrosion)” value in series [1] and in series [2] was 0.04 mm/year each time.
